Laboratory results reported in article PMC3335088 (PLoS ONE, 2012).
These are yes or no findings as the source states them, for the method shown. In cells and extracts the contact can be indirect. A result given as binding can be weak or reduced; the word gives no strength. Tags and fused reporters may be left off the sequences shown.

Columns and labels:
[1] = target: T1, MCM4 with 6-His tag in combination with a StrepII tag (UniProt P33991); assay: pull-down; co-expression in High Five insect cells; lysis in 50-100 mM Tris-HCl pH 8.0, 150 mM NaCl, 5% glycerol, 0.5% Triton X-100; tagged protein recovered on Ni-NTA, anti-FLAG M2, anti-HA or StrepT-actin resin, 1 hr at 4°C; washes with 300 mM NaCl; Coomassie staining and Western blot
T1 sequence: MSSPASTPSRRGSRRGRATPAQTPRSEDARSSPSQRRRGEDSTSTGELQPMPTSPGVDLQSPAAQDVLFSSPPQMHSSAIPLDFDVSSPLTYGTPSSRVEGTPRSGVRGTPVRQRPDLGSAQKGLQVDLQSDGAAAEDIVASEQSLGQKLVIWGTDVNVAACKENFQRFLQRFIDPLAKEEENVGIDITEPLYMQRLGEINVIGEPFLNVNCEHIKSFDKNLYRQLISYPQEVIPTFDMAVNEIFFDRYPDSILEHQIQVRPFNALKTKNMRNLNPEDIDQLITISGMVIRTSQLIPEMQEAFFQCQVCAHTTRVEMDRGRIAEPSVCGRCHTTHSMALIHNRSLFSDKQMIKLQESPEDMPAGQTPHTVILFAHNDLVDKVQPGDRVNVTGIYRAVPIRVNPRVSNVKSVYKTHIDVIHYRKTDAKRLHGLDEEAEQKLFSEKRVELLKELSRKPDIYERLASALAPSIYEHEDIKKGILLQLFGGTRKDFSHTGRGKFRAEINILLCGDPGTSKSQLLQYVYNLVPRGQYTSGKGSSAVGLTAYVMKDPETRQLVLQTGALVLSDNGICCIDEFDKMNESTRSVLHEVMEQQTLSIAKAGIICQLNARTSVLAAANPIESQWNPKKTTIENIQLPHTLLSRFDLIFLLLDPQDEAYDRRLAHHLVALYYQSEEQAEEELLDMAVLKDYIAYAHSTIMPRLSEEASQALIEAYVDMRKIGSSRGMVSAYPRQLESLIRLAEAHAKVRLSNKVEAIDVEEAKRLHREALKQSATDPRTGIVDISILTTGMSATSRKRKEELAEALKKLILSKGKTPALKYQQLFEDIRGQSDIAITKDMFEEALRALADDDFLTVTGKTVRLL

[2] = target: T2, MCM6 with 6-His tag in combination with a HA tag (human) (UniProt Q14566); assay: as above
T2 sequence: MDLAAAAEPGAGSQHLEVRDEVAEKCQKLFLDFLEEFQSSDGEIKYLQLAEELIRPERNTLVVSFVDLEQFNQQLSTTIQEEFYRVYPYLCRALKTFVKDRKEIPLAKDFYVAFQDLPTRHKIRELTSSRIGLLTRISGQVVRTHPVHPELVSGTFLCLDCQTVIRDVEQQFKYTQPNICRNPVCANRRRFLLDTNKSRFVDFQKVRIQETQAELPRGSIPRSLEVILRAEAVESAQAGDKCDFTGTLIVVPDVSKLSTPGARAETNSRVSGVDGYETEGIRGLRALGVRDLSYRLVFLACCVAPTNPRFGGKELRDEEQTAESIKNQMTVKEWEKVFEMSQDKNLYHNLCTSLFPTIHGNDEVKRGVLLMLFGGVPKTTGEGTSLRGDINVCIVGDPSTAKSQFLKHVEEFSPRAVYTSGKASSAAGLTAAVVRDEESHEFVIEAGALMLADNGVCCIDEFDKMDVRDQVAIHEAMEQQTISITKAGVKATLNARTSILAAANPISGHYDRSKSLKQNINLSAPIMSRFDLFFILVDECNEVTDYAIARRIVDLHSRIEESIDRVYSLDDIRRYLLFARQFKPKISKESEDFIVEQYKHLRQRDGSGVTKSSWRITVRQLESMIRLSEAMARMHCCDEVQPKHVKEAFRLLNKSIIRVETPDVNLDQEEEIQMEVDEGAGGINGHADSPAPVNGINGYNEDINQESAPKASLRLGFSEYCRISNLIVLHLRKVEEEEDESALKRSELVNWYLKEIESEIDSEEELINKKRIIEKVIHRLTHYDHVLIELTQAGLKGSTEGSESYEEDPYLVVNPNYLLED

With endogenous insect MCM-BP the binding [1] was “binds” and the binding [2] was “binds”.
